From publication PMC10920476 come the findings set out here.

Substitutions are numbered along the chain they refer to. Names and notes keep the numbering of the source. No constants are given. Whether binding was seen depends on the method and setting. In cells and extracts the contact can be indirect. Some results given as binding are weak or reduced against the parent protein; the word gives no strength.

Assay in all cases: co-IP; HEK293ft cells co-transfected with Flag- and V5-tagged STAT6 (WT or D419N), with or without IL-4 for 1 h; nuclear extracts (Nuclear Complex Co-IP Kit), 250 ug per condition; Flag IP with M2 beads probed for V5, and the reciprocal V5 IP with V5 antibody and magnetic dynabeads; overnight at …; western blot
Assay [1] concerns the target T1, signal transducer and activator of transcription 6 (STAT6), wild type (human), P42226.
T1 chain: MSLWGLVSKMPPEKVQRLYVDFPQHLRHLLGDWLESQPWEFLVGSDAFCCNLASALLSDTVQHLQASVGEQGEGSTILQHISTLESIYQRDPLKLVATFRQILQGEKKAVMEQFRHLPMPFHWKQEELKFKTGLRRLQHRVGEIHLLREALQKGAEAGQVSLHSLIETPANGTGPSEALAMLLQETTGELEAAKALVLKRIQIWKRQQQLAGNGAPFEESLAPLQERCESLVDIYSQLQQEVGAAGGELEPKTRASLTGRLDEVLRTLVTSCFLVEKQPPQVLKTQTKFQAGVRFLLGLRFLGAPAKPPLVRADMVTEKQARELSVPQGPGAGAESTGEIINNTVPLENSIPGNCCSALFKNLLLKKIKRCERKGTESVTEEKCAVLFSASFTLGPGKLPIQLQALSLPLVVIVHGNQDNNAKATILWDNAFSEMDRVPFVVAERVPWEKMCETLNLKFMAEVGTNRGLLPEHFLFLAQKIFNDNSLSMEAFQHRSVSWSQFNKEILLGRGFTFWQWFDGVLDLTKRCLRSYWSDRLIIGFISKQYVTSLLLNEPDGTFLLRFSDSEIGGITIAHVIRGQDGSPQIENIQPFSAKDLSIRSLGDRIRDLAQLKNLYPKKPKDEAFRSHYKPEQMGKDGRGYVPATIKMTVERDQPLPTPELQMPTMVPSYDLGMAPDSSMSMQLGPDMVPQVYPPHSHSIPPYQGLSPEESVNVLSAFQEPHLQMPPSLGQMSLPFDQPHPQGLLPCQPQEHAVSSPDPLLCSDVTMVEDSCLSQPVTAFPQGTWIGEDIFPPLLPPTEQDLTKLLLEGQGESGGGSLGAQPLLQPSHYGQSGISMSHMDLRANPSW
Conditions: remark: other sources report otherwise.

The target in assay [2] is signal transducer and activator of transcription 6 (STAT6) D419N (human) (UniProt P42226).
In assay [3] the target is T2, signal transducer and activator of transcription 6 (STAT6), wild type (human) (UniProt P42226).
T2 sequence: T1 chain

B1: signal transducer and activator of transcription 6 (STAT6), wild type, P42226-1 1-847 (protein)
chain: T1 chain
As to B1, the binding result in assay [1] was “binds”.

B2: signal transducer and activator of transcription 6 (STAT6) D419N (protein, UniProt P42226-1 1-847)
chain: T1 chain with D419N
Turning to B2, the binding entry in assay [2] and in assay [3] was “binds” throughout.
